In all, about 300,000 compounds went through this assay and about 3,700 (1.2%) were called active. Inconclusive means that the source gave no clear call. Such entries were picked first, then a sample of the others. Calls come from the whole dose curve; tested in HEK293 cells. Potencies of inconclusive entries are doubtful fits and often do not repeat. A structure can be active in one record and inactive in another. Where a SMILES comes first, the peptide text is derived from it. The star is where a group is joined. Cbz = O=C(OCc1ccccc1)*; CH2Cl = ClC*
Test: qHTS for Inhibitors of binding or entry into cells for Lassa Virus; note: nearly all actives have a fitted effect of over 50% in size
Settings: Lassa virus pseudotype entry inhibition, cell reporter; series mostly up to 37.9 µM
Potency is the fitted concentration of half-maximal effect.

| Structure (SMILES) | Potency |
| --- | --- |
| CCOc1ccc(S(=O)(=O)NCCc2sc3nc(-c4ccc(C)cc4)nn3c2C)cc1 | inconclusive: 11.2 µM [inhibitor, partial curve] |
| CC(C)N(CCCNC(=O)c1nn(C)c2c1CS(=O)(=O)c1ccccc1-2)Cc1ccccc1 | inactive |
| Cc1cccc(NC(=O)C(=O)NCCc2csc(-c3ccc(C(F)(F)F)cc3)n2)c1C | inconclusive: 31.6 µM [activator, single point] |
| O=C(COc1ccc(Cl)cc1)N/N=C/c1cccc2cccnc12 | inactive |
| CCn1c(CNc2nc3ccccc3n2C(C)C)nc2ccccc21 | inactive |
| O=C(CC1N=C2c3ccccc3N=C(SCC(=O)Nc3ccccc3F)N2C1=O)NCc1cccs1 (stereo not drawn) | inactive |
| CC1(C)Cc2c(c(N3CCOCC3)nc3sc4c(NCc5ccccc5)nnnc4c23)CS1 | inconclusive: 29.1 µM [inhibitor, single point] |
| CCN(c1ccccc1)S(=O)(=O)c1cccc(C(=O)NCc2ccccn2)c1 | inactive |
| COCc1nnc(NC(=O)c2cc(C(=O)OC)cc([N+](=O)[O-])c2)s1 | inconclusive: 4.61 µM [inhibitor, single point] |
| CC1=Nc2cc(C(=O)NC(C)C)ccc2Sc2ccc(C)cc21 | inactive |
| Cc1ccc(S(=O)(=O)NC2CCCCCCC2)cc1 | inconclusive: 35.5 µM [inhibitor, single point] |
| Cc1cccc(-c2nc3ccccc3c(=O)n2-n2cccc2)c1 | inactive |
| C/C(=N/NS(=O)(=O)c1cc(C)ccc1C)c1ccc2c(c1)OCO2 | inactive |
| CC(C)CCNC(=O)C(c1cccnc1)N(CCc1ccccc1)C(=O)Cn1nnc2ccccc21 (stereo not drawn) | inconclusive: 11.2 µM [inhibitor, single point] |
| O=C1/C(=C/c2ccco2)CCc2ccccc21 | inconclusive: 5.62 µM [activator, single point] |
| Cc1ccc(-n2c(SCC(N)=O)nc3c(c2=O)C2(CCCC2)Cc2ccccc2-3)cc1 | inconclusive: 35.5 µM [inhibitor, single point] |
| O=[N+]([O-])c1ccccc1CN1CCN(S(=O)(=O)Cc2ccccc2)CC1 | inconclusive: 3.16 µM [activator, full curve] |
| O=C(c1ncc[nH]1)c1cccs1 | inconclusive: 35.5 µM [activator, single point] |
| C#CCOc1nc(Nc2cccc([N+](=O)[O-])c2)nc(OCC#C)n1 | inconclusive: 11.2 µM [inhibitor, partial curve, poor fit] |
| CCOc1ccc(C(=O)NC(=S)Nc2cccnc2)cc1 | inconclusive: 0.164 µM [activator, partial curve, poor fit] |
| Cc1cc(C)cc(NC(=O)C2CCN(S(=O)(=O)c3cccc(-c4noc(C)n4)c3)CC2)c1 | inconclusive: 35.5 µM [inhibitor, single point] |
| Cc1ccc(S(=O)(=O)N(C)c2cc(S(=O)(=O)N3CCC(C)CC3)c(C)cc2C)cc1 | inconclusive: 35.5 µM [inhibitor, single point] |
| COc1ccc(S(=O)(=O)c2nnn(-c3ccc(C)c(Cl)c3)c2C)cc1 | inconclusive: 35.5 µM [inhibitor, single point] |

| Structure (SMILES) | Potency |
| --- | --- |
| CC1(C)CC(=O)C(C(N)=NC(=O)c2ccccc2)=C(O)C1 | inactive |
| COc1cc(N/N=C(\C)c2ccc(O)c(C)c2)nc(-c2ccccc2)n1 | inconclusive: 15.8 µM [inhibitor, partial curve, poor fit] |
| Cc1cc(C)c(NC(=O)c2ccc(CNS(=O)(=O)c3cc(C(F)(F)F)ccc3Cl)cc2)c(C)c1 | inconclusive: 22.4 µM [inhibitor, partial curve, poor fit] |
| CCN(CC)CCNC(=O)c1ccc(-n2c(-c3ccccc3)cc3c2CCCC3)cc1 | inconclusive: 0.891 µM [inhibitor, full curve, poor fit] |
| COc1cccc(CNC(=O)CCCn2nc(C)c3c(C)n(-c4ccc(C)cc4)nc3c2=O)c1OC | inactive |
| Cc1ccccc1NS(=O)(=O)c1cc(C(=O)NCc2ccco2)ccc1C | active: 1.64 µM |
| CCOC(=O)c1c(-c2ccc(-c3ccccc3)cc2)csc1NC(=O)CCN1CCOCC1 | active: 10 µM |
| O=C(O)c1cccc(N=NN2CCOCC2)c1 | inactive |
| Cc1cccc(Nc2nnc(SCC(=O)Nc3cccc(S(=O)(=O)N4CCCCC4)c3)s2)c1 | inconclusive: 35.5 µM [inhibitor, single point] |
| CC(C)CC(NC(=O)OCc1ccccc1)C(=O)NC(Cc1ccccc1)C(=O)CCl (stereo not drawn) (Cbz-Leu-Phe-CH2Cl; configuration not given here) | inconclusive: 12.6 µM [inhibitor, partial curve, poor fit] |
| O=C(Cn1c(C(=O)N2CCN(C3CCCC3)CC2)cc2sccc21)c1ccccc1 | inconclusive: 29.1 µM [inhibitor, single point] |
| CCOC(=O)C1(CCCc2ccccc2)CCN(C(=O)CCCn2cncn2)CC1 | inconclusive: 6.31 µM [inhibitor, full curve, poor fit] |
| O=C(c1ccco1)N1CCN(C2=NS(=O)(=O)c3ccccc32)CC1 | inactive |
| CN(C)/C=C/C(=O)c1ccc(Cl)cc1Cl | inactive |
| O=C(NCC1CCCO1)c1ccc2[nH]c3c(c2c1)CCCC3 (stereo not drawn) | inconclusive: 3.55 µM [activator, single point] |
| C#CC[N+]1(CC#Cc2ccc(C#CC[N+]3(CC#C)CCOCC3)cc2)CCOCC1 | inactive |
| CC1=C(CC/C(C)=N/NC(N)=S)C(C)(C)CCC1 | inconclusive: 4.11 µM [inhibitor, single point] |
| COC(=O)C1=C[C@@H]([C@@H](C)[C@H](OC)c2ccccc2Br)[C@@H]2OCC[C@H]12 | inconclusive: 6.68 µM [activator, single point] |
| COc1cccc(N/C(SC)=C(/C#N)C(=O)NCc2cccs2)c1 | inconclusive: 11.2 µM [inhibitor, partial curve] |
| O=C(Nc1ccc2c(c1)nc1n2CCN(Cc2ccccc2)C1)c1cccs1 | inconclusive: 29.1 µM [inhibitor, single point] |
| COc1nc(N(C)C)nc(N2CC(=O)N(CCNS(=O)(=O)c3ccc(C)cc3)C2=N)n1 | inconclusive: 0.708 µM [activator, single point] |
| CC(C)c1cc(C(C)C)c(S(=O)(=O)N2CCNCC2)c(C(C)C)c1 | inconclusive: 35.5 µM [inhibitor, single point] |
| COc1ccc(C(=O)N/N=C(\C)c2ccccn2)cc1OC | active: 5.62 µM |

Filtered by structure, the entries above containing a CF3 group.

| Structure (SMILES) | Potency |
| --- | --- |
| Cc1cccc(NC(=O)C(=O)NCCc2csc(-c3ccc(C(F)(F)F)cc3)n2)c1C | inconclusive: 31.6 µM [activator, single point] |
| Cc1cc(C)c(NC(=O)c2ccc(CNS(=O)(=O)c3cc(C(F)(F)F)ccc3Cl)cc2)c(C)c1 | inconclusive: 22.4 µM [inhibitor, partial curve, poor fit] |

Carrying on:

| Structure (SMILES) | Potency |
| --- | --- |
| COc1cccc(-c2nc3ccccc3s2)c1O | inconclusive: 15.8 µM [inhibitor, single point] |
| COc1ccc(C(=O)c2nc3c(n2O)CCCC3)cc1OC | inactive |
| Cc1cc(-c2ccccc2)nn1-c1nc2c(c(=O)[nH]c(=O)n2C)n1C | inactive |
| COc1ccc(/C(C)=N\NC(=O)c2ccc(-c3ccccc3)cc2)c(F)c1 | inconclusive: 0.708 µM [inhibitor, full curve, poor fit] |
| NC(=O)c1nsc(C(=O)N(c2ccccc2)C(C(=O)NCc2ccc(F)cc2)c2ccc(O)cc2)c1N (stereo not drawn) | active: 2.24 µM |
| O=CC1=C(N2CCOCC2)/C(=C\c2ccccc2)CC1 | inconclusive: 22.4 µM [inhibitor, single point] |
| O=S(=O)(c1ccc(Oc2ccc(Br)cc2)cc1)N1CCOCC1 | inconclusive: 12.6 µM [inhibitor, single point] |
| Cc1c(/C=N/n2cnnc2)c2ccccc2n1CCOc1ccccc1 | inactive |
| O=C1c2ccccc2NC(c2ccccn2)N1c1ccc(Cl)cc1 (stereo not drawn) | inconclusive: 11.2 µM [activator, partial curve, poor fit] |
| COCCN(CCOC)c1nc(S(=O)(=O)c2ccc(C)cc2)c(Cl)s1 | inconclusive: 20.6 µM [inhibitor, single point] |
| O=C(Nc1ccc(Cl)cc1C(F)(F)F)C(Sc1nnc(-c2cccs2)o1)c1ccccc1 (stereo not drawn) | inactive |
| CC#C[C@]1(O)CC[C@H]2[C@@H]3CCC4=CC(=O)CCC4=C3[C@@H](c3ccc(N(C)C)cc3)C[C@@]21C | active: 8.2 µM |
| COC(=O)c1ccc(NC(=O)Nc2ccc(F)cc2F)cc1 | inactive |
| Cc1ccc(C(=O)N/C(=C/c2ccc(-c3ccc([N+](=O)[O-])cc3)o2)C(=O)NCCCN(C)C)cc1 | inconclusive: 22.4 µM [inhibitor, single point] |
| COc1cc(C(=O)NCC(c2ccco2)N2CCc3ccccc32)cc(OC)c1OC (stereo not drawn) | inconclusive: 35.5 µM [inhibitor, single point] |
| CCC/C=N/NC(=O)CNC(=O)c1ccccc1Cl | inactive |
| CC1(C)CC2CC(C)(CN2S(=O)(=O)c2ccc(C(=O)Nc3ccc(S(=O)(=O)N4CCOCC4)cc3)cc2)C1 (stereo not drawn) | active: 3.55 µM |
| Cc1c(C(=O)NCc2ccc(OC(C)C)cc2)sc2ncnc(N(C)C3CCCCC3)c12 | inactive |
| CCOc1ccc(-c2nc(CCl)cs2)cc1OC | inconclusive: 35.5 µM [inhibitor, single point] |
| COCCN(C(=O)COC(=O)c1ccc2[nH]c(C)c(C)c2c1)c1c(N)n(Cc2ccccc2)c(=O)[nH]c1=O | inconclusive: 20 µM [inhibitor, partial curve, poor fit] |
| CC(C)CCNC(=O)c1cc(C(=O)c2cc(Br)ccc2O)cn(CCC(C)C)c1=O | inactive |
| O=c1c2ccccc2nc(-c2ccccc2)n1CCCn1ccnc1 | inconclusive: 11.2 µM [activator, single point] |

Reprinted at random: two compounds from above.

| Structure (SMILES) | Potency |
| --- | --- |
| Cc1ccc(S(=O)(=O)N(C)c2cc(S(=O)(=O)N3CCC(C)CC3)c(C)cc2C)cc1 | inconclusive: 35.5 µM [inhibitor, single point] |
| CC(C)CCNC(=O)c1cc(C(=O)c2cc(Br)ccc2O)cn(CCC(C)C)c1=O | inactive |
